# From PubChem BioAssay AID1259354 (Paczesny and Yang Labs, IUPUI and University of Michigan, 2018)
# Chains of the proteins cited; added tags and fusions are not shown. Lines headed by an entry give the natural chain unless they say otherwise; changes in a name come on top.
# UniProt Q01638: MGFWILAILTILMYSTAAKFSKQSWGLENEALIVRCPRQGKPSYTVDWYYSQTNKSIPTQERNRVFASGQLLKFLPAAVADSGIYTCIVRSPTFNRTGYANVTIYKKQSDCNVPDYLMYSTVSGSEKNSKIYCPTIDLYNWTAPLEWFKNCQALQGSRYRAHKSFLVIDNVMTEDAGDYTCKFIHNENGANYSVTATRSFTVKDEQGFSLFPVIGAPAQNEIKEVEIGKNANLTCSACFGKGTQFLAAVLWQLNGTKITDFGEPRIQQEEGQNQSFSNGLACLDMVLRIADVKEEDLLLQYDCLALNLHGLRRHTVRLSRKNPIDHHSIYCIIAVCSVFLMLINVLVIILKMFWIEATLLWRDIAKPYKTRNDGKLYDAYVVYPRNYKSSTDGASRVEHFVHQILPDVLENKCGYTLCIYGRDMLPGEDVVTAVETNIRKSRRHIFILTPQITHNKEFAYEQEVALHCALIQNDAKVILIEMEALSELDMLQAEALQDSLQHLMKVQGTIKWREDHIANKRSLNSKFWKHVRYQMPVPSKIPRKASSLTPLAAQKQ
# Values joined by “and” are separate entries in the source; they are usually repeats but may differ in a detail not shown here. Identical values can stand only once. About 1,800 (2.3%) of roughly 78,000 compounds were called active. The inconclusive results got no clear call from the source; some entries with a clear call stand among them for comparison. Rule as the data show it: active = inhibition above about 30%; inconclusive = mostly about 10% to 28%; inactive = weaker than that.
# Molecular target: Interleukin-1 receptor-like 1 (Homo sapiens) (UniProt Q01638)
# Experiment: blocks human ST2 binding to IL-33, primary screen, biochemical, AlphaLISA (AID 1259354)
# Details: AlphaLISA ST2-Fc/biotin-IL-33 interaction, 1 h; at 17 µM, active compounds read high
row,SMILES,inhibition
1,O=C1N=C(N2CCCC2)S/C1=C\C=C\c1ccccc1,inconclusive: 23%
2,C=CCOc1cccc(CN(C)C(=O)[C@@H]2C[C@H](N)CN2C)c1,inconclusive: 10%
3,CC(=O)NC(=O)c1cc2ccccc2oc1=Nc1ccc(F)cc1,inactive
4,COc1cc(/C=C2\C(=O)N(c3ccc(Cl)c(C(=O)O)c3)N=C2C)cc([N+](=O)[O-])c1O,active: 80%
5,O=C(Nc1ccc(-c2ccco2)cc1)C1CCCN(Cc2coc3ccccc3c2=O)C1 (centres undefined),inconclusive: 26%
6,Cc1ncc(CN2CCCC(C(=O)Nc3cccc(-c4cc5ccccc5[nH]4)c3)C2)s1 (centres undefined),inconclusive: 16%
7,O=C(CN1C(=O)CNC1=O)N1CCCC2(C1)C(=O)Nc1ccccc12 (centres undefined),inconclusive: 26%
8,OCc1ccc(-c2nn(Cc3ccccc3)c3ccccc23)o1,inconclusive: 17%
9,CCN(CC)C(=O)Cn1cnc2sc(C(=O)Nc3cc(Cl)ccc3OC)c(C)c2c1=O,inconclusive: 10%
10,Cc1ccc(NC(=O)c2ccc([N+](=O)[O-])cc2)cc1,inactive
11,O=C(N[C@H]1CCN2C(=O)[C@@H](Cc3c[nH]c4ccccc34)NC(=O)[C@H]12)c1cnccn1,inconclusive: 11%
12,COc1ccc(OC)c(C2CCN(Cc3nnc(-c4ccc(C)n4C)o3)C2)c1 (centres undefined),inconclusive: 11%
13,COc1cccc(Nc2cc(C)nc3ncnn23)c1,inconclusive: 10%
14,O=C(O)c1cn(-c2cc(C(F)(F)F)ccc2Cl)c(=O)c2ccccc12,inactive
15,Cc1nn(-c2ccccc2)c2c1C(c1ccc([N+](=O)[O-])o1)C(C#N)=C(N)O2 (centres undefined),active: 39%
16,COc1ccc2oc(=Nc3ccc(F)cc3)c(C(=O)NC(C)=O)cc2c1,inconclusive: 29%
17,CCOc1ccc(CNc2ccc3c(c2)ncn3C)cc1,inconclusive: 12%
18,Cc1ccc(OCC(=O)Nc2cc(-c3nc4ncccc4o3)ccc2Cl)cc1C,active: 31% and active: 30%
19,COc1cccc(NC(=O)c2ccc(Br)o2)c1,inconclusive: 20%
20,Cn1c(=O)cc2c3c(c(Nc4ccccc4)ccc31)C(=O)c1ccccc1-2,active: 40%
21,Cc1n[nH]c(C)c1S(=O)(=O)NCc1ccccc1,inconclusive: 13%
22,COc1ccccc1N1CCN(C(=O)C(C)Oc2ccccc2F)CC1 (centres undefined),inactive
23,CCc1ccc(S(=O)(=O)N2CCSC2c2cc(Br)ccc2OC)cc1 (centres undefined),inconclusive: 10%
24,Cc1cc(C)n(CCCN(C)C(=O)c2scc3c2OCCO3)n1,inactive

row,SMILES,inhibition
1,Cc1cc(N2CCN(Cc3noc(C)n3)CC2)nc(-c2cccnc2)n1,inactive
2,COc1cc(C2C3=C(CC(C)(C)CC3=O)Nc3ncnn32)cc(OC)c1OC (centres undefined),inactive
3,CC(=O)Nc1nnc(SCc2ccc(Br)cc2)s1,inconclusive: 13%
4,CCCC(=O)O/N=C1\CC(C)(C)Cc2noc(Cc3ccccc3)c21,inconclusive: 18%
5,COc1cccc(C2C(C(N)=O)=C(C)Nc3ncnn32)c1OC (centres undefined),inactive
6,Cc1ccc(SC2CCN(C(=O)c3cn(Cc4ccccc4F)nn3)CC2)cc1,inconclusive: 16%
7,Nc1cc(-c2ccc(-n3ccnc3)nn2)c2cc[nH]c2n1,inconclusive: 11%
8,CCN(CCN1CCOCC1)Cc1cccc2c1OCO2,inconclusive: 10%
9,Cc1c(Cl)ccc(S(=O)(=O)N2CCN(c3ccccc3)CC2)c1Cl,inconclusive: 15%
10,Cc1nccn1Cc1c(C(=O)O)c2cc(O)c(Br)cc2n1C,inconclusive: 15%
11,CC(C)(C)c1[nH]nc2c1C(c1ccccc1Cl)C(C#N)=C(N)O2 (centres undefined),inactive
12,CN(C)CCNC(=O)c1cc2n(n1)CCCN(c1cnc3ccccc3n1)C2,inconclusive: 10%
13,CC1=C(C(=O)OC(C)C)C(c2ccco2)C(C#N)=C(N)O1 (centres undefined),inconclusive: 12%
14,CC1=C(C(N)=O)C(c2cccc(Br)c2)n2nc(SCc3ccccc3)nc2N1 (centres undefined),inconclusive: 21%
15,O=C(c1ccn2nnnc2c1)N1CCCC(CCc2ccc(F)c(F)c2)C1 (centres undefined),inactive
16,COCC(=O)N1CCN(C(=O)C2CCNCC2)C[C@@H]1C(=O)N[C@@H](CC1CCCCC1)C(N)=O,inconclusive: 17%
17,O=C(O)c1ccc(Nc2ccc([N+](=O)[O-])ccc2=O)cc1,inconclusive: 19%
18,FC(F)(F)c1nnc(N2CCN(Cc3ccnc4ccccc34)CC2)s1,inconclusive: 17%
19,CC(C)CCN1C(=O)N(CC(N)=O)C(=O)C12CCN(C/C=C/c1ccc(N(C)C)cc1)CC2,inconclusive: 11%
20,O=C1NN(c2ccc(Br)cc2)C(=O)/C1=C\c1cc([N+](=O)[O-])ccc1Cl,inconclusive: 18%
21,Nc1nc2c(c(=O)[nH]1)CCN(C(=O)[C@@H]1C[C@@H]3C=C[C@H]1C3)C2,inconclusive: 11%
22,O=C(Cn1c(=O)c2sccc2n(Cc2ccc(Cl)cc2)c1=O)NCc1ccco1,inactive
23,CCN(C(=O)Cc1c(C(=O)O)[nH]c2ccc(Cl)cc12)c1cc(OC)ccc1OC,inactive
24,N#Cc1cccc(-c2ccc(=O)n3c2[C@@H]2C[C@@H](CN(S(=O)(=O)c4ccccc4C#N)C2)C3)c1,inactive

row,SMILES,inhibition
1,CC1(C)CC(OC(=O)CC#N)CC(C)(C)N1,inactive
2,O=[N+]([O-])c1cc(C=Nc2ccc(N3CCOCC3)cc2)ccc1Cl,active: 48%
3,N=C1N=NC(c2ccccc2)=CS/C1=C\c1ccc(Cl)cc1,inconclusive: 10%
4,O=C(Nc1ccccc1Cl)C(Cc1ccccc1)N1C(=O)c2ccccc2C1=O (centres undefined),inconclusive: 29% and inconclusive: 10%
5,Cc1cnn(-c2ccc3nnc(-c4ccc(Cl)cc4)n3n2)c1,active: 36%
6,CCOc1ccc(NS(=O)(=O)c2cc(Br)cc3c2N(C(=O)C2CC2)CC3)cc1,inconclusive: 15%
7,CCOc1ccc(-c2nc(C(N)=O)c3c(n2)n(-c2ccc(C)c(C)c2)c(=O)n3CC)cc1,inactive
8,COc1ccc(-n2cnc3c(oc4ccccc43)c2=O)cc1,inactive
9,Cc1nc2ccccc2nc1SCC(=O)N1CCCCCC1,inactive
10,COc1cc(CN2CCN(c3ccc(Cl)cc3)CC2)c([N+](=O)[O-])cc1OC,inconclusive: 15%
11,Nc1ncc(-c2cccc3ccnn23)cn1,inactive
12,c1ccc(CCN2CCC(Cn3ccnc3C3CC3)CC2)cc1,inconclusive: 18%
13,Cn1c(=O)c2nc3ccc(NC(=O)CCC(=O)O)cc3nc2n(C)c1=O,inconclusive: 18%
14,COc1ccc(-c2ccc(/C=C3\C(=O)N(c4cccc(Cl)c4)N=C3C)o2)cc1[N+](=O)[O-],active: 49%
15,CCOC(=O)N1CCN(C(=O)CC2(c3ccccc3F)CC(=O)N(CCOC)C2=O)CC1 (centres undefined),inconclusive: 12%
16,CCOc1ccccc1C1C(C(=O)N(CC)CC)=C(C)Nc2nc3ccccc3n21 (centres undefined),inactive
17,Cc1cccc(NC(=O)NCCc2nc3cccnc3n2-c2ccccc2)c1C,inconclusive: 22%
18,CCO[C@H]1COC[C@@H]1NC(=O)c1scc2c1OCCO2,inactive
19,COc1ccc(CNC(=O)c2cc3cc4ccc(C)cc4nc3s2)cc1,inconclusive: 15%
20,COC(=O)c1cccc(NC(=S)N[C@H]2CO[C@H]3[C@@H]2OC[C@H]3OC(=O)Nc2ccc(C(C)=O)cc2)c1,inconclusive: 18%
21,O=C(O)CSc1nnc(-c2ccc(Cl)cc2)n1-c1ccccc1,inconclusive: 10%
22,CN1CCCN(Cc2ccccc2[N+](=O)[O-])CC1,inconclusive: 10%
23,CC(C)Sc1oc(-c2ccco2)nc1S(=O)(=O)c1ccc(Cl)cc1,inconclusive: 17%
24,Cc1ccc(-n2ncc3c2CCCC3NC2CSCCSC2)cc1C (centres undefined),inconclusive: 13%

row,SMILES,inhibition
1,Cc1cc(C=O)c(C)n1-c1cccc(F)c1,inconclusive: 11%
2,Cc1nc(C)c(C(=O)N2CC[C@H](CO)[C@H](O)C2)s1,inactive
3,CC(C)N=C(NS(=O)(=O)c1cccs1)c1ccccc1,inactive
4,Cc1ccc(-n2c3c(cc(C(=O)Nc4cccc(C)n4)c2=O)C(=O)CC(C)(C)C3)cc1,inactive
5,C=CCNC(=O)c1ccc(Cn2c(=O)[nH]c3ccsc3c2=O)cc1,inconclusive: 19%
6,O=C(O)CNC(=O)c1cccc(Br)c1,inconclusive: 11%
7,CNC1(C)C2CCC(C2)C1(C)C (centres undefined),inconclusive: 20%
8,O=[N+]([O-])c1ccccc1CN1C[C@H](O)C[C@H]1c1nc(C2CC2)no1,inactive
9,Cc1ccc(NC(=O)c2ccc(F)cc2)c(Br)c1,inactive
10,Cc1csc(SCC(=O)N2CC(=O)N(CC(C)C)CC(OCc3ccccn3)C2)n1 (centres undefined),inconclusive: 26%
11,O=C(NCC1(O)CCNC1)C1CCN(C(=O)c2ccccn2)CC1 (centres undefined),inconclusive: 16%
12,COc1ccc(-c2nnc(C[C@@H]3C[C@@H](C(C)C)[C@H](CN4CCC(CO)CC4)C=C3C)o2)cc1,inconclusive: 14%
13,CC1CCCN(S(=O)(=O)c2cc(Br)cc3c2N(C(=O)C2CC2)CC3)C1 (centres undefined),inactive
14,CCC(C)N1CCN(C(=O)c2ccncc2)CC1 (centres undefined),inactive
15,O=C(Nc1nnc(-c2cccnc2)s1)c1ccccc1F,inconclusive: 14%
16,CC(C)C(C)(NC(=O)c1cccnc1Oc1ccc(Cl)cc1)C(N)=O (centres undefined),inactive
17,O=C(CN1CCOCC1)Nc1c2c(nc3ccccc13)CCCC2,inconclusive: 10%
18,O=S(=O)(c1ccc(I)cc1)N1CCSC1c1cccc(Cl)c1 (centres undefined),inactive
19,COc1cccc(C2CCCN2Cc2nc(-c3ccc(OC)c(OC)c3OC)no2)c1 (centres undefined),inactive
20,CC(=O)Nc1ccc(S(=O)(=O)n2nc(C)c(Sc3ccc(Cl)cc3)c2C)cc1,inconclusive: 10%
21,Cc1ccccc1-c1nc(CSCC(=O)N2CCc3ccccc3C2)c(C)o1,inactive
22,O=C(Cn1nc(-c2ccccc2)ccc1=O)NCCc1ccccc1,inconclusive: 10%
